Experiment: Adsorption of aromatic substances on CTS crystalline anhydrate (Example C-3)
Format: physicochemical
Conditions: aromatic substance adsorbed per 1 g of CTS crystalline anhydrate
Protocol: The following explains the experimental method in detail. […] The amount of the adsorbed aromatic substances was calculated by measuring the weight of the resulting powders and subtracting their starting powder weight (4 g).

Structure (SMILES): CC(C)CC(=O)O [Isovaleric Acid]
- Amount of Adsorbed Substance: 0.46 g
